This is an account of results in patent EP4671262A1 (Daebong LS Co., Ltd., priority 2023, dated 2024).

The nature of this series: peptide synthesis. Particulars: whole synthesis, 220 nm.

For the substance “AAQPR (Ala-Ala-Gln-Pro-Arg) (printed: Ala-Ala-Gln-Pro-Arg)”, the “purity (crude or final not stated)” value stood at 95%.
